No constants are given. Whether binding was seen depends on the method and setting. Binding seen in cells or lysates may run through a third protein. Some binding calls cover weakened binding; strength is not graded here. For some assays here: Where a sequence is shown, tags or fusion partners need not be part of it. Values belong to the binder of their own block, whether it stands above or below them.
How the values were obtained:
[1] = molecular target: T1, SLAH3-YFPn (Arabidopsis thaliana) (UniProt Q9FLV9); assay: split reporter; split-YFP constructs transiently co-expressed in N. benthamiana leaves by agro-infiltration; leaves collected 2 d after infiltration; confocal microscopy
T1 sequence: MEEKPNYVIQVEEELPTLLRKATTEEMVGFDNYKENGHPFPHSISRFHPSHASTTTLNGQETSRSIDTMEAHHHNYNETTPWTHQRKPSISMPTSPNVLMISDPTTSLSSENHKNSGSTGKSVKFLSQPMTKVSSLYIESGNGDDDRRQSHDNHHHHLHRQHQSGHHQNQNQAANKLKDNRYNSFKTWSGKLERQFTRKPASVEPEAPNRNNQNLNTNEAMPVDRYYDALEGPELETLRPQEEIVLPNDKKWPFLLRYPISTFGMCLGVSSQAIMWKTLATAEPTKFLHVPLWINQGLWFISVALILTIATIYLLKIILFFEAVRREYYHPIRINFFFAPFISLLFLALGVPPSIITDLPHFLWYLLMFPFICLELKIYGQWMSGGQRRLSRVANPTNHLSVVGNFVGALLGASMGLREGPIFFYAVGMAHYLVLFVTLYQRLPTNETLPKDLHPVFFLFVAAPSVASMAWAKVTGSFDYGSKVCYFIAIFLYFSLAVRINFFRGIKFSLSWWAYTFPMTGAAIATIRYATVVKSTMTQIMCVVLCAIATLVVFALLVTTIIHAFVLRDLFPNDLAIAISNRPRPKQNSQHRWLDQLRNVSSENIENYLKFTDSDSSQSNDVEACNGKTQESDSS

Sequences of proteins named here, by UniProt entry; tags and fusion partners are left off.
UniProt Q9FIJ0: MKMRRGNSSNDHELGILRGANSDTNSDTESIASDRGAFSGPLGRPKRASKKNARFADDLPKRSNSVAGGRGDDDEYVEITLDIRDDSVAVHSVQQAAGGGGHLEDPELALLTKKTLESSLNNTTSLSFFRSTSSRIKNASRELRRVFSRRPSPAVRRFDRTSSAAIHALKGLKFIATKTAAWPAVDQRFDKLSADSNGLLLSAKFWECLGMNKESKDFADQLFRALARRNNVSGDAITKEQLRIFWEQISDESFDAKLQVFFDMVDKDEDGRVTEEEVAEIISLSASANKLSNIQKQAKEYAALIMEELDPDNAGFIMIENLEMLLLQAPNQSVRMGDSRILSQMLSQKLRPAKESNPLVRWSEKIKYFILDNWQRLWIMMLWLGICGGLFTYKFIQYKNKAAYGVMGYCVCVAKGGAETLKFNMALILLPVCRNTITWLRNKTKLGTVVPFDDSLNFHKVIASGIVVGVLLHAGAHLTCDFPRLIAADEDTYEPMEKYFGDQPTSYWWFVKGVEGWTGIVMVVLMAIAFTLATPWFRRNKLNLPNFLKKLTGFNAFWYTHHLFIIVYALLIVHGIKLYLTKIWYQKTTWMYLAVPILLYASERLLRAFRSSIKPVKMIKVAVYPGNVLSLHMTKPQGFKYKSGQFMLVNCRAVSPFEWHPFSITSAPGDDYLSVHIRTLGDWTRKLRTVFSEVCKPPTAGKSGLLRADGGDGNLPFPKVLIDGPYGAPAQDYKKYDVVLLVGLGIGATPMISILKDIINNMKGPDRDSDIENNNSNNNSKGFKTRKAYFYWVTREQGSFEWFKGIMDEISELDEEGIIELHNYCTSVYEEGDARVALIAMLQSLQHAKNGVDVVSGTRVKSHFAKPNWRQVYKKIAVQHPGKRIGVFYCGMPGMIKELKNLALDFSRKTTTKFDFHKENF

[2] = molecular target: YFPn-RBOHD (Arabidopsis thaliana) (UniProt Q9FIJ0); assay: as above
[3] = molecular target: T2, SLAH3-FLAG (Arabidopsis thaliana) (UniProt Q9FLV9); assay: co-IP; SLAH3-FLAG precipitated on FLAG beads (4°C, 2 hr) from extract of infiltrated N. benthamiana leaves; 50 mM Tris-HCl pH 7.5, 150 mM NaCl, 10% glycerol, 0.1% Triton X-100, 0.2% Nonidet P-40; with or without chitin stimulation; blots with anti-FLAG and anti-T7
T2 sequence: T1 sequence

[4] = molecular target: T3, LYK5-YFPn (Arabidopsis thaliana) (UniProt O22808); assay: split reporter; split-YFP constructs transiently co-expressed in N. benthamiana leaves by agro-infiltration; leaves collected 2 d after infiltration; confocal microscopy
T3 sequence: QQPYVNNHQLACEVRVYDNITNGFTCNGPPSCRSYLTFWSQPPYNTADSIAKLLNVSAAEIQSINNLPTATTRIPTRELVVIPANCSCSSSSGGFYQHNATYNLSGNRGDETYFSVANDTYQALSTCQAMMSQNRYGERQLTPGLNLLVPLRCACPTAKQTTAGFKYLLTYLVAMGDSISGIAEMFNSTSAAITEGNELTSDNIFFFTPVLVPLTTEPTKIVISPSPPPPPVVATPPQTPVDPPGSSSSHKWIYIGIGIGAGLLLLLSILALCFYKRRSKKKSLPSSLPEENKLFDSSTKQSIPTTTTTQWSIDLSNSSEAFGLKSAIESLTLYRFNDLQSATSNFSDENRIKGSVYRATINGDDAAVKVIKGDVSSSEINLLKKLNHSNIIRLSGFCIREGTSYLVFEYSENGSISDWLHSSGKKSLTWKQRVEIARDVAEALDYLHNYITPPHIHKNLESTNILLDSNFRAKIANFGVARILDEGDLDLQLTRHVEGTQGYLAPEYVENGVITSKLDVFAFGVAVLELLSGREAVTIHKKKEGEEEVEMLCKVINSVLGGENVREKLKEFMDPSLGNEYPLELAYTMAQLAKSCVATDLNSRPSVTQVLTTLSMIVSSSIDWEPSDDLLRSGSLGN

binding [1]: binds
binding [2]: no binding
B1: PBL27-YFPc (enzyme, UniProt Q1PDV6 1-513)
chain: MSGCLPCFGSSAKDAASKDSVKKELSAKDGSVTQSHHISLDKSKSRRGPEQKKELTAPKEGPTAHIAAQTFTFRELAAATKNFRPECLLGEGGFGRVYKGRLETTGQIVAVKQLDRNGLQGNREFLVEVLMLSLLHHPNLVNLIGYCADGDQRLLVYEYMPLGSLEDHLHDLPPDKEPLDWSTRMTIAAGAAKGLEYLHDKANPPVIYRDLKSSNILLGDGYHPKLSDFGLAKLGPVGDKTHVSTRVMGTYGYCAPEYAMTGQLTLKSDVYSFGVVFLELITGRKAIDNARAPGEHNLVAWARPLFKDRRKFPKMADPSLQGRYPMRGLYQALAVAAMCLQEQAATRPLIGDVVTALTYLASQTFDPNAPSGQNSRSGSGPPFIRTRDDRRSLGDGSSLDSPAETRSRLGSPATHKNSPDYRRRDMVREVNAGSEGGSETGGGSGRKWGLSDLEGQESQRGSPASVGRSSRGTPRNRDLDRERAVAEAKVWGENWRERKRATNGPGSFDSTND

binding [3]: binds
B2: PBL27-T7 (enzyme, UniProt Q1PDV6 1-513)
chain: B1 chain

binding [4]: binds
binding [1]: no binding
B3: CERK1^D441V-YFPc (receptor, UniProt A8R7E6 24-617)
chain: KCRTSCPLALASYYLENGTTLSVINQNLNSSIAPYDQINFDPILRYNSNIKDKDRIQMGSRVLVPFPCECQPGDFLGHNFSYSVRQEDTYERVAISNYANLTTMESLQARNPFPATNIPLSATLNVLVNCSCGDESVSKDFGLFVTYPLRPEDSLSSIARSSGVSADILQRYNPGVNFNSGNGIVYVPGRDPNGAFPPFKSSKQDGVGAGVIAGIVIGVIVALLLILFIVYYAYRKNKSKGDSFSSSIPLSTKADHASSTSLQSGGLGGAGVSPGIAAISVDKSVEFSLEELAKATDNFNLSFKIGQGGFGAVYYAELRGEKAAIKKMDMEASKQFLAELKVLTRVHHVNLVRLIGYCVEGSLFLVYEYVENGNLGQHLHGSGREPLPWTKRVQIALDSARGLEYIHEHTVPVYVHRVIKSANILIDQKFRAKVADFGLTKLTEVGGSATRGAMGTFGYMAPETVYGEVSAKVDVYAFGVVLYELISAKGAVVKMTEAVGEFRGLVGVFEESFKETDKEEALRKIIDPRLGDSYPFDSVYKMAELGKACTQENAQLRPSMRYIVVALSTLFSSTGNWDVGNFQNEDLVSLMSGR

— article PMC6776436
